# From patent publication US20260159618A1, “COMPOUND, POLYMERIZABLE COMPOSITION, POLYMER, HOLOGRAPHIC RECORDING MEDIUM, OPTICAL MATERIAL, AND OPTICAL COMPONENT” (Mitsubishi Chemical Corporation, priority 2022, published 2026)
# Some of these results come from one statement about several compounds together.
# Assay: Refractive index measurement of polymerizable monomer (Kalnew precision refractometer)
# Type: physicochemical
# Conditions: 23° C., helium lamp d-line (587.6 nm); calculated for 100% by mass from calibration curve of 10 and 20% by mass test solutions; listed as Example 10
# Description: The refractive index of the compound M-1 was measured using the following method. The refractive indexes of the polymerizable monomers produced in the Examples and Comparative Examples were also measured using the same method.
# A test solution was prepared by dissolving the sample in a mixed solution of 3-phenoxybenzyl acrylate and trimethylolpropane trimethacrylate in a mass ratio of 4:1 to obtain the specified concentration.
# Two types of test solutions were prepared, with sample concentrations of 10% by mass and 20% by mass.
# The refractive index of each test solution was measured using a Kalnew precision refractometer (manufactured by Shimadzu Corporation, product name: KPR-2000). The temperature of the test solution was 23° C., and the measurement wavelength was helium lamp d-line (587.6 nm). Based on the measurement results, a calibration curve showing the correlation between sample concentration and refractive index was created, and the refractive index when the sample concentration was 100% by mass was calculated from the obtained calibration curve, and was taken as the refractive index of the sample.
compound,measurement,value
C=CC(=O)OCCOc1c(-c2cc3ccccc3c3ccccc23)cc(-c2cc3ccccc3c3ccccc23)cc1-c1cc2ccccc2c2ccccc12 [Compound M-10],Refractive Index,exceed 1.73
